In paper PMC8486843, “SPOP mutation induces replication over-firing by impairing Geminin ubiquitination and triggers replication catastrophe upon ATR inhibition” (Nature Communications, 2021):
Residue numbers refer to the chain shown, from its start. Names and notes keep the numbering of the source. No constants are given. Whether binding was seen depends on the method and setting. In cells and extracts the contact can be indirect. Some entries that bind do so weakly or less than the wild type. For some assays here: Where a sequence is shown, tags or fusion partners need not be part of it.

Sequences of proteins named here, by UniProt entry; tags and fusion partners are left off. A change or cut given only in a name is not applied to a line headed by its entry.
UniProt O43791: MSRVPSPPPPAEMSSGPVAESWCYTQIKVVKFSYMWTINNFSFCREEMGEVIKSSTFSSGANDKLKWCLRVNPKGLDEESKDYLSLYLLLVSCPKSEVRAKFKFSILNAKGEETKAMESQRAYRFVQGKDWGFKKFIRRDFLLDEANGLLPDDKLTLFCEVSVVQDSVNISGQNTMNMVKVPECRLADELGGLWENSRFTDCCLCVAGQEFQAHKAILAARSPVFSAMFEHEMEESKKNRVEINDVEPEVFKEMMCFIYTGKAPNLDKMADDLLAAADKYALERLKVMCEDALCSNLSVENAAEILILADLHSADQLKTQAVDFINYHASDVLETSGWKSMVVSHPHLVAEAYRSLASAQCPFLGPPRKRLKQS
UniProt P49736: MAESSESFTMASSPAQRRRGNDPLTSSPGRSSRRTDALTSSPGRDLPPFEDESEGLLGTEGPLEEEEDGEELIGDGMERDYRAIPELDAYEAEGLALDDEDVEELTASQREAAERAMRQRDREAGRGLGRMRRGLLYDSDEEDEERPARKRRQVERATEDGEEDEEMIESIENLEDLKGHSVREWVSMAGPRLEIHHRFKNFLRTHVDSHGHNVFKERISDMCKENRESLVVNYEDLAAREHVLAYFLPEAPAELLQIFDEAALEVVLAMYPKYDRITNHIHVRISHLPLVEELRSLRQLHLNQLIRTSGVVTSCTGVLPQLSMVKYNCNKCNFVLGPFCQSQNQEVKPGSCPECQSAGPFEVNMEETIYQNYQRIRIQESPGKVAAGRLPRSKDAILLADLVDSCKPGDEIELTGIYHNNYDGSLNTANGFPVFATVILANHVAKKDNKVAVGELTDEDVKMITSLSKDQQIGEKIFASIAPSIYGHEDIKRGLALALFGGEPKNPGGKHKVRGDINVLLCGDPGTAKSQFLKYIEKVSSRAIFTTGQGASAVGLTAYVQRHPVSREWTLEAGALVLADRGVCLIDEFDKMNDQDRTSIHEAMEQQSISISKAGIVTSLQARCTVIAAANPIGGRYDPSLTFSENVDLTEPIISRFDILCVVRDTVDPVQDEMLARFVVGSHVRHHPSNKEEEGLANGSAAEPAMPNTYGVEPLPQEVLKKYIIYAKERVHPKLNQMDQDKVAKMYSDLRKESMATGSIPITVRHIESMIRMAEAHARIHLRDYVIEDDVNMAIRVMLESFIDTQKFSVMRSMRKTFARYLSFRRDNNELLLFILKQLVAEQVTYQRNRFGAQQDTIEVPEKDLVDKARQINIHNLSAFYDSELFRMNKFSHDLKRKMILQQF

Assays:
GST-Geminin (human) = biological target: T1, GST-Geminin (human) (UniProt O75496); experiment: pull-down; in vitro translated protein with GST-Geminin purified from E. coli (Supplementary Fig. 1l, 3l); only the target purified
T1 sequence: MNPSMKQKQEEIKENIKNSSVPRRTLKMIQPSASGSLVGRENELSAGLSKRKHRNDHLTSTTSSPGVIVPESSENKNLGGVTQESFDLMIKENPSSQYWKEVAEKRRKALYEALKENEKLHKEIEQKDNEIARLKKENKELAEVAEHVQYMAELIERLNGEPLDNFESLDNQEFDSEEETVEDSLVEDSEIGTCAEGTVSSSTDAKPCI

Flag-Geminin WT (human) = biological target: T2, Flag-Geminin WT (human) (UniProt O75496); experiment: co-IP; 293T cells co-transfected with Flag-Geminin (WT or mutant) and SPOP (WT or mutant) (Fig. 1g, 3b, 3d, 3g)
T2 sequence: T1 sequence

[1] = biological target: T3, Geminin mutant lacking the Cdt1-binding region (amino acids 82-160) (human) (UniProt O75496); experiment: co-IP; Geminin mutant lacking residues 82-160 (Supplementary Fig. 1k); cells and tags not shown
T3 sequence: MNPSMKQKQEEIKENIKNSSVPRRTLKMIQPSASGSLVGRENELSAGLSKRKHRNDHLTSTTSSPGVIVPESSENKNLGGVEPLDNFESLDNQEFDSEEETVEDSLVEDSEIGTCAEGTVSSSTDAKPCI

[2] = biological target: T4, Flag-Geminin S202F mutant (human) (UniProt O75496); experiment: co-IP; 293T cells co-transfected with Flag-Geminin (WT or mutant) and SPOP (WT or mutant) (Fig. 1g, 3b, 3d, 3g)
T4 sequence: T1 sequence with S202F

[3] = biological target: T5, Geminin SBC deletion mutant (deletion of 199VSSST203) (human) (UniProt O75496); experiment: as above
T5 sequence: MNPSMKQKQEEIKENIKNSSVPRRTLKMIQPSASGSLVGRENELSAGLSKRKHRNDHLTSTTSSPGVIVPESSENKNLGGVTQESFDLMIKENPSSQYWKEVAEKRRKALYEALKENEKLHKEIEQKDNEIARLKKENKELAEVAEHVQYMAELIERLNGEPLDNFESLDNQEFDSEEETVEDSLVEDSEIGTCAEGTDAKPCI

[4] = biological target: T6, Cdt1 (co-IPs of Supplementary Fig. 1k and 3c) (human) (UniProt Q9H211); experiment: co-IP; Geminin WT and Lys100/Lys127 mutants with Cdt1 (Supplementary Fig. 3c); cells and tags not shown
T6 sequence: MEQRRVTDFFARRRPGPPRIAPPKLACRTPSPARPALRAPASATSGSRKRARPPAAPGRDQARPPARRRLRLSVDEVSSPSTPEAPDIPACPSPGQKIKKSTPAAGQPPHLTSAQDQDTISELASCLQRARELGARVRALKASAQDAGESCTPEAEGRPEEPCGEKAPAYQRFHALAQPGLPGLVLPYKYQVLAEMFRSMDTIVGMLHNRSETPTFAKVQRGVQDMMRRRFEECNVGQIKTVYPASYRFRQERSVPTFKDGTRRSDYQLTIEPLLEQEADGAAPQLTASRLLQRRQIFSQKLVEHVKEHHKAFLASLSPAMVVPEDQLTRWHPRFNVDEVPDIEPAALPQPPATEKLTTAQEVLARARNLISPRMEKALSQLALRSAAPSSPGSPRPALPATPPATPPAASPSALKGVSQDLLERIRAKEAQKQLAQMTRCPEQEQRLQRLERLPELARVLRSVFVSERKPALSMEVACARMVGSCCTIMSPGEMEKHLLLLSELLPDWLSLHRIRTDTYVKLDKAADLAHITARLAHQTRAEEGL

[5] = biological target: T7, ectopically expressed Cdt1 (human) (UniProt Q9H211); experiment: co-IP; ectopically expressed Geminin and Cdt1, with transient expression of SPOP mutants F102C and F133V (Supplementary Fig. 3a)
T7 sequence: T6 sequence

[6] = biological target: T8, endogenous Cdt1 (human (endogenous in 293T, PC-3, BPH1, DU145)) (UniProt Q9H211); experiment: co-IP; PC-3 cells infected with lentivirus for shRNAs, WT or mutated Geminin, or SPOP mutants (Fig. 4a, b)
T8 sequence: T6 sequence

[7] = biological target: endogenous SPOP (human (endogenous in PC-3)) (UniProt O43791); experiment: co-IP; endogenous proteins in PC-3 cells (Fig. 1e)
Myc-SPOP WT (human) = Myc-SPOP WT (human) (UniProt O43791); experiment: co-IP; 293T cells transfected with Myc-SPOP; endogenous partners detected by blot (Fig. 1d)
[8] = biological target: T8, endogenous Cdt1 (human (endogenous in 293T, PC-3, BPH1, DU145)); experiment: co-IP; endogenous proteins in BPH1 and DU145 cells with stable expression of SPOP F133V (Supplementary Fig. 3b)

Question: Which binding (GST-Geminin (human)) does the source give for “in vitro translated MCM2 protein (from UniProt P49736 1-904)” here?
Answer: no binding

Question: Which binding (Flag-Geminin WT (human)) does the source give for SPOP F102C (from UniProt O43791 1-374) here?
Answer: no binding

Question: What does the source list for Myc-SPOP WT (from UniProt O43791 1-374)?
Answer: binding [1]: binds; binding [2]: no binding; binding [3]: no binding; binding (Flag-Geminin WT (human)): binds

Question: Which binding (Flag-Geminin WT (human)) does the source give for SPOP F133V (from UniProt O43791 1-374) here?
Answer: no binding

Question: Which binding (GST-Geminin (human)) does the source give for “in vitro translated SPOP (from UniProt O43791 1-374)” here?
Answer: binds

B1: Flag-Geminin WT (protein, UniProt O75496 1-209)
chain: T1 sequence
Question: What does the source list for B1?
Answer: binding [4]: binds; binding [5]: binds

B2: endogenous Geminin (protein, UniProt O75496 1-209)
chain: T1 sequence
Question: B2 was tested. Which binding [6] did it give?
Answer: binds

Question: And the binding [7]?
Answer: binds

Question: What about the binding (Myc-SPOP WT (human)) of the same molecule?
Answer: binds

Question: And the binding [8]?
Answer: binds

B3: Geminin K100R/K127R mutant (protein, UniProt O75496 1-209)
chain: T1 sequence with K100R, K127R
Question: How did the binding [4] turn out when B3 was run?
Answer: binds

B4: Geminin K100R mutant (protein, UniProt O75496 1-209)
chain: T1 sequence with K100R
Question: How did the binding [4] turn out when B4 was run?
Answer: binds

B5: endogenous CDC6 (protein, UniProt Q99741 1-560)
chain: MPQTRSQAQATISFPKRKLSRALNKAKNSSDAKLEPTNVQTVTCSPRVKALPLSPRKRLGDDNLCNTPHLPPCSPPKQGKKENGPPHSHTLKGRRLVFDNQLTIKSPSKRELAKVHQNKILSSVRKSQEITTNSEQRCPLKKESACVRLFKQEGTCYQQAKLVLNTAVPDRLPAREREMDVIRNFLREHICGKKAGSLYLSGAPGTGKTACLSRILQDLKKELKGFKTIMLNCMSLRTAQAVFPAIAQEICQEEVSRPAGKDMMRKLEKHMTAEKGPMIVLVLDEMDQLDSKGQDVLYTLFEWPWLSNSHLVLIGIANTLDLTDRILPRLQAREKCKPQLLNFPPYTRNQIVTILQDRLNQVSRDQVLDNAAVQFCARKVSAVSGDVRKALDVCRRAIEIVESDVKSQTILKPLSECKSPSEPLIPKRVGLIHISQVISEVDGNRMTLSQEGAQDSFPLQQKILVCSLMLLIRQLKIKEVTLGKLYEAYSKVCRKQQVAAVDQSECLSLSGLLEARGILGLKRNKETRLTKVFFKIEEKEIEHALKDKALIGNILATGLP
Question: For B5, which binding [6] is on record?
Answer: binds

B6: endogenous ORC2 (protein, UniProt Q13416 1-577)
chain: MSKPELKEDKMLEVHFVGDDDVLNHILDREGGAKLKKERAQLLVNPKKIIKKPEYDLEEDDQEVLKDQNYVEIMGRDVQESLKNGSATGGGNKVYSFQNRKHSEKMAKLASELAKTPQKSVSFSLKNDPEITINVPQSSKGHSASDKVQPKNNDKSEFLSTAPRSLRKRLIVPRSHSDSESEYSASNSEDDEGVAQEHEEDTNAVIFSQKIQAQNRVVSAPVGKETPSKRMKRDKTSDLVEEYFEAHSSSKVLTSDRTLQKLKRAKLDQQTLRNLLSKVSPSFSAELKQLNQQYEKLFHKWMLQLHLGFNIVLYGLGSKRDLLERFRTTMLQDSIHVVINGFFPGISVKSVLNSITEEVLDHMGTFRSILDQLDWIVNKFKEDSSLELFLLIHNLDSQMLRGEKSQQIIGQLSSLHNIYLIASIDHLNAPLMWDHAKQSLFNWLWYETTTYSPYTEETSYENSLLVKQSGSLPLSSLTHVLRSLTPNARGIFRLLIKYQLDNQDNPSYIGLSFQDFYQQCREAFLVNSDLTLRAQLTEFRDHKLIRTKKGTDGVEYLLIPVDNGTLTDFLEKEEEEA
Question: For B6, which binding [6] is on record?
Answer: binds

B7: endogenous Cdt1 (protein, UniProt Q9H211 1-546)
chain: T6 sequence
Question: Which binding [7] does the source give for B7 here?
Answer: binds

Question: And the binding (Myc-SPOP WT (human))?
Answer: binds
